This passage reports binding results from paper PMC4735476, “Dataset concerning GroEL chaperonin interaction with proteins” (Data in Brief, 2016).

Chains of the proteins cited; added tags and fusions are not shown. Residues count along the entry.
UniProt P00791, residues 60-385: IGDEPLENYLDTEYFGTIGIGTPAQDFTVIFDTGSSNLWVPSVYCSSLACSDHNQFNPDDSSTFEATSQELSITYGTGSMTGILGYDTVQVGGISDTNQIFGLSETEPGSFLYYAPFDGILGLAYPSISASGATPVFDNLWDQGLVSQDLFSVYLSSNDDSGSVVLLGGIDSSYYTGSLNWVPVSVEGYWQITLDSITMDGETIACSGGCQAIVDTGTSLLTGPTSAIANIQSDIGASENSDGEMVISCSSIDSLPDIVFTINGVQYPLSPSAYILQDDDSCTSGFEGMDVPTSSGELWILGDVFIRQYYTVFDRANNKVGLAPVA
UniProt P0A6F5: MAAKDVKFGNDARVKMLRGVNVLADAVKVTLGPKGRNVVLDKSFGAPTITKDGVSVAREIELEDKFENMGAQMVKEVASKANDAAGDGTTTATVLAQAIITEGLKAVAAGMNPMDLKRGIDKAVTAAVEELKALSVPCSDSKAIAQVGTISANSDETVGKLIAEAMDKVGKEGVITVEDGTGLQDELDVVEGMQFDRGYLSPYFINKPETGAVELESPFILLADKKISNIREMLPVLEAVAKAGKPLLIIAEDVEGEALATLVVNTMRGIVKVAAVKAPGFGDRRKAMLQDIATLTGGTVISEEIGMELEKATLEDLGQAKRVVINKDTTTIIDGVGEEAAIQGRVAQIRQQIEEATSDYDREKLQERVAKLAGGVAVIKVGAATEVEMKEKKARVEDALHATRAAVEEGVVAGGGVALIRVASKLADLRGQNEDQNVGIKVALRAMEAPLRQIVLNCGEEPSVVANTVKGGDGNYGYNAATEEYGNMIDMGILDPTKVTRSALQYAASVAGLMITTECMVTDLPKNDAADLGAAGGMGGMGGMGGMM

Assay [1] deals with pepsin from porcine gastric mucosa, covalently immobilized to BrCN-Sepharose (porcine) (UniProt P00791). Nature of the assay: affinity chromatography; denatured pepsin immobilized on BrCN-Sepharose (2 ml sorbent); GroEL loaded in 20 mM Tris–HCl, pH 7.5, 300 mM NaCl, 10 mM MgCl2; elution with 20 mM Tris–HCl, pH 7.5; fractions read by SDS gel electrophoresis and ATPase activity; both purified.

Assay [2] has the same target. Put plainly: condition: only at a low ionic strength (20 mM Tris–HCl); affinity chromatography; denatured pepsin immobilized on BrCN-Sepharose (2 ml sorbent); GroEL loaded in 20 mM Tris–HCl, pH 7.5 (low ionic strength); elution with 8 M urea; fractions read by SDS gel electrophoresis and ATPase activity; both purified.
Assay [3] addresses T1, fluorescein-labeled human α-lactalbumin (human) (UniProt P00709).
T1 sequence (chain, fluorescein label (fluorescein isothiocyanate), position not stated): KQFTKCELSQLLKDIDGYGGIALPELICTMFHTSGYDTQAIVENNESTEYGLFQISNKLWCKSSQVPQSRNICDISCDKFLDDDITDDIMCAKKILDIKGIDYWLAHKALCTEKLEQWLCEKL
Put plainly: condition: only native state at a low ionic strength (20 mM Tris–HCl, pH 7.5); fluorescence polarisation; 30×10^-9 M native fluorescein-labeled protein titrated with GroEL at a low ionic strength (20 mM Tris–HCl, pH 7.5); fluorescence anisotropy, excitation 490 nm, emission 520 nm; apparent constant, counted on GroEL cavities (doubled GroEL concentration); both purified.

These are yes or no findings as the source states them, for the method shown. Some binding calls cover weakened binding; strength is not graded here.

As for “GroEL chaperonin (from UniProt P0A6F5 1-548)”, the values for the binding result in assay [1], in assay [2] and in assay [3] were “binds”, “no binding” and “no binding”, respectively.
